# The supplement of paper PMC4840960
# The list shows a part of the results. Baselines shift from plate to plate; read single values as rough.
# System: E18 rat cortical neuron-glia co-culture
# Experiment: total nuclei (DAPI) / Olig2+ nuclei (ratio); higher = more depletion of OPC/OL lineage cells
# Conditions: 5 µM; treatment time: 8 days (DIV5-DIV13)
row,SMILES,total nuclei
1,COc1c2occc2cc2ccc(=O)oc12 [Methoxsalen],4.1
2,NCc1ccc(S(N)(=O)=O)cc1 [Mafenide],4.8
3,O=C(O[C@@H]1C[C@@H]2C[C@H]3C[C@H](C1)N2CC3=O)c1c[nH]c2ccccc12 [Dolasetron],3
4,Cc1ncc([N+](=O)[O-])n1CC(C)O (stereo not drawn) [Secnidazole],3.5
5,Nc1nc(=O)c2nc(CNc3ccc(C(=O)N[C@@H](CCC(=O)O)C(=O)O)cc3)cnc2[nH]1 [Folic acid],3.7
6,Nc1nc(N)nc(-c2cc(Cl)ccc2Cl)n1 [Irsogladine],4.5
7,CC[C@H]1OC(=O)[C@H](C)[C@@H](O[C@H]2C[C@@](C)(OC)[C@@H](O)[C@H](C)O2)[C@H](C)[C@@H](O[C@@H]2O[C@H](C)C[C@H](N(C)C)[C@H]2O)[C@](C)(O)C[C@@H](C)C(=O)[C@H](C)[C@@H](O)[C@]1(C)O [Erythromycin],> 40
8,CC(C)[N+]1(C)[C@@H]2CC[C@H]1C[C@@H](OC(=O)C(CO)c1ccccc1)C2 (stereo partly drawn) [Ipratropium],2.8

# Some of these compounds in order of molecular weight, falling:
row,SMILES,total nuclei
8,CC(C)[N+]1(C)[C@@H]2CC[C@H]1C[C@@H](OC(=O)C(CO)c1ccccc1)C2 (stereo partly drawn) [Ipratropium],2.8
6,Nc1nc(N)nc(-c2cc(Cl)ccc2Cl)n1 [Irsogladine],4.5
4,Cc1ncc([N+](=O)[O-])n1CC(C)O (stereo not drawn) [Secnidazole],3.5
